Measured values: publication PMC9100673, “Acridine Based N-Acylhydrazone Derivatives as Potential Anticancer Agents: Synthesis, Characterization and ctDNA/HSA Spectroscopic Binding Properties” (Molecules, 2022)

Test system: calf thymus DNA (ctDNA)
Test: UV-Vis absorption titration with ctDNA (Benesi-Hildebrand)
Format: binding
Details: compound 25 μM, ctDNA up to 680 μM, pH 7.4, room temperature
Description: Changes in absorbance intensity (either hyperchromic or hypochromic) and a shift in the peak position (hypsochromicity or batochromicity) are typical spectral properties closely related to the interaction of a drug with DNA [60, 61]. […] The absorption spectra of compounds 3a–3d in the presence of increasing concentrations of ctDNA show hypochromicity (16–51%) and a slight hypsochromic shift (Δλ = 1–9 nm, 3a–3d), findings which indicate that the acridine derivatives have interacted with DNA (Table 3). […] Hypochromism typically occurs as a result of the contraction of ctDNA in the helix axis, and this conformation change is often a result of a surface binding complex developing between the small molecules and the DNA, either through external contact or in the case of strong interaction between the small molecules and DNA [62, 63]. Classical intercalating compounds are able to couple their π orbital with the π of the base pair of DNA during intercalation into DNA, thereby decreasing the π → π* transition energies and inducing hypochromism combined with a batochromic shift. In contrast, electrostatic interaction can also show hyperchromism, an effect that indicates the increasing likelihood of electrons in the π–π* transition of the extended resonance system. This process is usually accompanied by a hypsochromic shift as a response to the increasing electron density in π-orbitals; it also stabilizes the orbitals and results in an increase in the energy gap between the π and π* orbitals. On this basis, it is possible to state with confidence that the observed changes in the absorption spectra of acridine derivatives 3a–3d in the presence ctDNA are a result of the electron-rich DNA donating electrons to the π-orbitals of the system.
The binding constant Kb of compounds 3a–3d was determined using the modified Benesi-Hildebrand Equation (6):(6) A0/A−A0=εB/εB + DNA+εB/εB + DNA × 1/KbDNA, where A0 and A are the absorbances of the acridine derivatives in the absence and presence of ctDNA; εB and εB + DNA are the molar extinction coefficients of the acridine derivatives individually and in the bound complex, respectively; Kb is the binding constant; and [DNA] is the concentration of ctDNA. The binding constant Kb was estimated from the intercept-to-slope ratios of A0/(A − A0) vs. 1/[DNA] plots (insert graph Figure 6). The values of binding constant for the interaction of the acridine derivatives with ctDNA increased in the following relation: 3d < 3c < 3a < 3b.
UV-Vis absorption spectrum of the drug-ctDNA complexes were measured on a Varian Cary 100 Bio UV-Vis Spectrophotometer. The UV-Vis spectra of free compounds 3a–3d and drug-ctDNA complexes were recorded at the wavelength range of 220 to 600 nm. The measurements were performed in a 1.0 cm quartz cuvette with 2 mL of a Tris-HCl (10 mM, pH = 7.4) buffer at room temperature. The titration experiment was carried out in the presence of a fixed concentration of compounds 3a–3d (25 μM) and was performed by titrating varying concentrations of ctDNA ranging from 0 to 680 μM. The solution was incubated for 5 min and then tested.

Row | Compound | H, hypochromicity at λmax [%] | Δλ, hypsochromic shift (blue shift) of absorption peak [nm]
1 | O=C(N/N=C/c1cccc2cc3ccccc3nc12)c1ccc(F)cc1 [3b, N′-[(E)-Acridin-4-ylmethylidene]-4-fluorobenzohydrazide] | 51 | 9
2 | O=C(N/N=C/c1cccc2cc3ccccc3nc12)c1ccc(Br)cc1 [3d, N′-[(E)-Acridin-4-ylmethylidene]-4-bromobenzohydrazide] | 16 | 1
3 | O=C(N/N=C/c1cccc2cc3ccccc3nc12)c1ccccc1 [3a, N′-[(E)-(Acridin-4-yl)methylidene]benzohydrazide] | 44 | 3
4 | O=C(N/N=C/c1cccc2cc3ccccc3nc12)c1ccc(Cl)cc1 [3c, N′-[(E)-Acridin-4-ylmethylidene]-4-chlorobenzohydrazide] | 17 | 1
